Laboratory results: PubChem BioAssay AID504764 (Drosophila RNAi Screening Center, 2011)

Assay: 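Knock-downs that raise or lower a Notch target reporter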 (primary screen)
Cell system: Drosophila Kc167 cells
Reagent: long dsRNA against Drosophila genes
Duration: about 5 days (4 days dsRNA, then 24 h after transfection)
Challenge: transfection of constitutively active membrane-tethered Notch lacking the extracellular domain, read 24 h later
Read-out: 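Light from a Notch-responsive E(spl)m3 luciferase reporter under active Notch, with control-promoter and no-Notch reporter wells to normalise; raw counts from paired wells a and b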
Direction: induced reporter light, run 1, well a and induced reporter light, run 1, well b: higher = more light from the Notch target reporter with active Notch; control promoter light, run 1, well a and control promoter light, run 1, well b: higher = more light from the viral control promoter (cell number, transfection, viability); uninduced reporter light, run 1, well a: higher = more light from the Notch target reporter without active Notch
Rule for the call: 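Hit if the duplicate-averaged log2 ratio of induced to control-promoter light gives a plate-wise z beyond ±2, or induced to uninduced beyond ±1.8; weak-control or discordant-duplicate wells dropped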
Calls: active = modifier hit (raised or lowered Notch signal); inactive = not a hit
The screen tested about 22,000 reagents; this is a random part of those with a known target gene and a result. Of all reagents, 403 (1.9%) got an active call. 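Unnormalised raw counts per well; ratio z-scores behind the hit calls and whether each hit raises or lowers signal are not deposited.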 A number with no mark means an inactive call. Not stated in the record: the amount of reagent.

gene	induced reporter light, run 1, well a	induced reporter light, run 1, well b	control promoter light, run 1, well a	control promoter light, run 1, well b	uninduced reporter light, run 1, well a
Tom40	90610	1.28e5	1.61e5	1.75e5	7700
CG33770	1.21e5	1.49e5	1.45e5	1.24e5	8525
Ric	79165	61865	88000	72665	7345
Eglp2	1.18e5	81565	62040	75735	6225
Kdm2	2.28e5	2.20e5	1.30e5	1.36e5	14790
Vps53	1.74e5	1.66e5	1.61e5	1.52e5	16385
CG2931	71685	73180	64260	54920	6585
ppk31	2.63e5	1.78e5	2.23e5	1.88e5	18580
link	75270	74355	1.08e5	1.09e5	8155
GABPI	2.10e5	1.76e5	2.40e5	2.36e5	19555
CG11380	34395	36845	21600	29690	5720
Mms19	1.35e5	1.20e5	93385	92555	9140
CG31926	1.17e5	1.20e5	79655	82830	10092
CG30037	85950	89400	1.21e5	1.06e5	8805
SkpA	18430	20065	21590	29835	1510
CG14298	1.64e5	1.72e5	2.29e5	2.22e5	11695
Obp93a	2.30e5	1.78e5	1.95e5	2.03e5	15310

Part of the list above in another layout:
gene,"induced reporter light, run 1, well a","induced reporter light, run 1, well b","control promoter light, run 1, well a","control promoter light, run 1, well b","uninduced reporter light, run 1, well a"
link,75270,74355,1.08e5,1.09e5,8155
GABPI,2.10e5,1.76e5,2.40e5,2.36e5,19555
CG11380,34395,36845,21600,29690,5720
Mms19,1.35e5,1.20e5,93385,92555,9140
CG31926,1.17e5,1.20e5,79655,82830,10092

Further entries follow:
gene	induced reporter light, run 1, well a	induced reporter light, run 1, well b	control promoter light, run 1, well a	control promoter light, run 1, well b	uninduced reporter light, run 1, well a
Gr59b	2.28e5	2.07e5	1.85e5	1.56e5	14290
CG9215	58560	49095	68610	64870	7820
CG9855	1.24e5	90310	45600	80450	7438
lectin-24A	63905	58080	69510	55840	3985
CG14054	82595	91640	1.63e5	1.84e5	8575
FMRFaR	1.46e5	1.14e5	2.10e5	1.09e5	9010
shrb	54045	46890	55365	60140	3530
CG32679	62495	74575	88190	82050	4870
CG15919	1.74e5	1.70e5	2.28e5	2.06e5	13480
Adk1	84285	86500	86290	66835	4520
mon2	1.78e5	2.08e5	1.01e5	1.46e5	23270
dob	2.06e5	1.90e5	2.30e5	2.34e5	12350
CG13615	1.50e5	1.59e5	2.13e5	2.27e5	13500
CG14650	1.38e5	1.35e5	1.14e5	1.16e5	9735
Obp58b	1.87e5	1.70e5	1.72e5	1.48e5	13855
CG3939	98980	1.11e5	1.60e5	1.92e5	8180
Whamy	99590	90170	95020	79205	7030
